Measurements taken from US12729225B2, “Non-canonical SWI/SNF complex and uses thereof” (Dana-Farber Cancer Institute, Inc., priority 2018, dated 2026).

Tested on: mSWI/SNF complexes
Experiment: mSWI/SNF complex purification with HA-tagged baits and mass spectrometry (peptide counts)
Design: species or system human
[1] = 293_HA-BRD7 bait purification, mass spectrometry, total peptides per co-purified protein
[2] = 293_HA-BRD7 bait purification, mass spectrometry, unique peptides per co-purified protein

B1: CANX (protein, UniProt P27824 21-592, looked up)
Calnexin: HDGHDDDVIDIEDDLDDVIEEVEDSKPDTTAPPSSPKVTYKAPVPTGEVYFADSFDRGTLSGWILSKAKKDDTDDEIAKYDGKWEVEEMKESKLPGDKGLVLMSRAKHHAISAKLNKPFLFDTKPLIVQYEVNFQNGIECGGAYVKLLSKTPELNLDQFHDKTPYTIMFGPDKCGEDYKLHFIFRHKNPKTGIYEEKHAKRPDADLKTYFTDKKTHLYTLILNPDNSFEILVDQSVVNSGNLLNDMTPPVNPSREIEDPEDRKPEDWDERPKIPDPEAVKPDDWDEDAPAKIPDEEATKPEGWLDDEPEYVPDPDAEKPEDWDEDMDGEWEAPQIANPRCESAPGCGVWQRPVIDNPNYKGKWKPPMIDNPSYQGIWKPRKIPNPDFFEDLEPFRMTPFSAIGLELWSMTSDIFFDNFIICADRRIVDDWANDGWGLKKAADGAAEPGVVGQMIEAAEERPWLWVVYILTVALPVFLVILFCCSGKKQTSGMEYKKTDAPQPDVKEEEEEKEEEKDKGDEEEEGEEKLEEKQKSDAEEDGGTVSQEEEDRKPKAEEDEILNRSPRNRKPRRE
Total [1]: 4
Unique [2]: 3

B2: WDR33 (protein, UniProt Q9C0J8 2-1336, looked up)
pre-mRNA 3' end processing …: ATEIGSPPRFFHMPRFQHQAPRQLFYKRPDFAQQQAMQQLTFDGKRMRKAVNRKTIDYNPSVIKYLENRIWQRDQRDMRAIQPDAGYYNDLVPPIGMLNNPMNAVTTKFVRTSTNKVKCPVFVVRWTPEGRRLVTGASSGEFTLWNGLTFNFETILQAHDSPVRAMTWSHNDMWMLTADHGGYVKYWQSNMNNVKMFQAHKEAIREASFSPTDNKFATCSDDGTVRIWDFLRCHEERILRGHGADVKCVDWHPTKGLVVSGSKDSQQPIKFWDPKTGQSLATLHAHKNTVMEVKLNLNGNWLLTASRDHLCKLFDIRNLKEELQVFRGHKKEATAVAWHPVHEGLFASGGSDGSLLFWHVGVEKEVGGMEMAHEGMIWSLAWHPLGHILCSGSNDHTSKFWTRNRPGDKMRDRYNLNLLPGMSEDGVEYDDLEPNSLAVIPGMGIPEQLKLAMEQEQMGKDESNEIEMTIPGLDWGMEEVMQKDQKKVPQKKVPYAKPIPAQFQQAWMQNKVPIPAPNEVLNDRKEDIKLEEKKKTQAEIEQEMATLQYTNPQLLEQLKIERLAQKQVEQIQPPPSSGTPLLGPQPFPGQGPMSQIPQGFQQPHPSQQMPMNMAQMGPPGPQGQFRPPGPQGQMGPQGPPLHQGGGGPQGFMGPQGPQGPPQGLPRPQDMHGPQGMQRHPGPHGPLGPQGPPGPQGSSGPQGHMGPQGPPGPQGHIGPQGPPGPQGHLGPQGPPGTQGMQGPPGPRGMQGPPHPHGIQGGPGSQGIQGPVSQGPLMGLNPRGMQGPPGPRENQGPAPQGMIMGHPPQEMRGPHPPGGLLGHGPQEMRGPQEIRGMQGPPPQGSMLGPPQELRGPPGSQSQQGPPQGSLGPPPQGGMQGPPGPQGQQNPARGPHPSQGPIPFQQQKTPLLGDGPRAPFNQEGQSTGPPPLIPGLGQQGAQGRIPPLNPGQGPGPNKGDSRGPPNHHMGPMSERRHEQSGGPEHGPERGPFRGGQDCRGPPDRRGPHPDFPDDFSRPDDFHPDKRFGHRLREFEGRGGPLPQEEKWRRGGPGPPFPPDHREFSEGDGRGAARGPPGAWEGRRPGDERFPRDPEDPRFRGRREESFRRGAPPRHEGRAPPRGRDGFPGPEDFGPEENFDASEEAARGRDLRGRGRGTPRGGRKGLLPTPDEFPRFEGGRKPDSWDGNREPGPGHEHFRDTPRPDHPPHDGHSPASRERSSSLQGMDMASLPPRKRPWHDGPGTSEHREMEAPGGPSEDRGGKGRGGPGPAQRVPKSGRSSSLDGEHHDGYHRDEPFGGPPGSGTPSRGGRSGSNWGRGSNMNSGPPRRGASRGGGRGR
Total [1]: 4
Unique [2]: 3

B3: HNRNPA1 (protein, UniProt P09651 1-372, looked up)
Heterogeneous nuclear …: MSKSESPKEPEQLRKLFIGGLSFETTDESLRSHFEQWGTLTDCVVMRDPNTKRSRGFGFVTYATVEEVDAAMNARPHKVDGRVVEPKRAVSREDSQRPGAHLTVKKIFVGGIKEDTEEHHLRDYFEQYGKIEVIEIMTDRGSGKKRGFAFVTFDDHDSVDKIVIQKYHTVNGHNCEVRKALSKQEMASASSSQRGRSGSGNFGGGRGGGFGGNDNFGRGGNFSGRGGFGGSRGGGGYGGSGDGYNGFGNDGGYGGGGPGYSGGSRGYGSGGQGYGNQGSGYGGSGSYDSYNNGGGGGFGGGSGSNFGGGGSYNDFGNYNNQSSNFGPMKGGNFGGRSSGPYGGGGQYFAKPRNQGGYGGSSSSSSYGSGRRF
Total [1]: 4
Unique [2]: 3

B4: BCL7B (protein)
chain: MSGRSVRAETRSRAKDDIKKVMAAIEKVRKWEKKWVTVGDTSLRIFKWVPVTDSKEKEKSKSNSSAAREPNGFPSDASANSSLLLEFQDENSNQSSVSDVYQLKVDSSTNSSPSPQQSESLSPAHTSDFRTDDSQPPTLGQEILEEPSLPSSEVADEPPTLTKEEPVPLETQVVEEEEDSGAPPLKRFCVDQPTVPQTASES
Total [1]: 4
Unique [2]: 3

B5: KRT2 (protein, UniProt P35908 1-639, looked up)
Keratin, type II cytoskeletal …: MSCQISCKSRGRGGGGGGFRGFSSGSAVVSGGSRRSTSSFSCLSRHGGGGGGFGGGGFGSRSLVGLGGTKSISISVAGGGGGFGAAGGFGGRGGGFGGGSSFGGGSGFSGGGFGGGGFGGGRFGGFGGPGGVGGLGGPGGFGPGGYPGGIHEVSVNQSLLQPLNVKVDPEIQNVKAQEREQIKTLNNKFASFIDKVRFLEQQNQVLQTKWELLQQMNVGTRPINLEPIFQGYIDSLKRYLDGLTAERTSQNSELNNMQDLVEDYKKKYEDEINKRTAAENDFVTLKKDVDNAYMIKVELQSKVDLLNQEIEFLKVLYDAEISQIHQSVTDTNVILSMDNSRNLDLDSIIAEVKAQYEEIAQRSKEEAEALYHSKYEELQVTVGRHGDSLKEIKIEISELNRVIQRLQGEIAHVKKQCKNVQDAIADAEQRGEHALKDARNKLNDLEEALQQAKEDLARLLRDYQELMNVKLALDVEIATYRKLLEGEECRMSGDLSSNVTVSVTSSTISSNVASKAAFGGSGGRGSSSGGGYSSGSSSYGSGGRQSGSRGGSGGGGSISGGGYGSGGGSGGRYGSGGGSKGGSISGGGYGSGGGKHSSGGGSRGGSSSGGGYGSGGGGSSSVKGSSGEAFGSSVTFSFR
Total (293_HA-BRD7: HA-BRD7 bait purification, total peptide count per co-purified protein): 31
Unique (293_HA-BRD7: HA-BRD7 bait purification, unique peptide count per co-purified protein): 25

B6: PYCR1 (protein, UniProt P32322 2-319, looked up)
Pyrroline-5-carboxylate …: SVGFIGAGQLAFALAKGFTAAGVLAAHKIMASSPDMDLATVSALRKMGVKLTPHNKETVQHSDVLFLAVKPHIIPFILDEIGADIEDRHIVVSCAAGVTISSIEKKLSAFRPAPRVIRCMTNTPVVVREGATVYATGTHAQVEDGRLMEQLLSSVGFCTEVEEDLIDAVTGLSGSGPAYAFTALDALADGGVKMGLPRRLAVRLGAQALLGAAKMLLHSEQHPGQLKDNVSSPGGATIHALHVLESGGFRSLLINAVEASCIRTRELQSMADQEQVSPAAIKKTILDKVKLDSPAGTALSPSGHTKLLPRSLAPAGKD
Total [1]: 3
Unique [2]: 3

B7: PHB (protein, UniProt P35232 2-272, looked up)
Prohibitin 1: AAKVFESIGKFGLALAVAGGVVNSALYNVDAGHRAVIFDRFRGVQDIVVGEGTHFLIPWVQKPIIFDCRSRPRNVPVITGSKDLQNVNITLRILFRPVASQLPRIFTSIGEDYDERVLPSITTEILKSVVARFDAGELITQRELVSRQVSDDLTERAATFGLILDDVSLTHLTFGKEFTEAVEAKQVAQQEAERARFVVEKAEQQKKAAIISAEGDSKAAELIANSLATAGDGLIELRKLEAAEDIAYQLSRSRNITYLPAGQSVLLQLPQ
Total [1]: 3
Unique [2]: 3
